Measurements reported in PubChem BioAssay (NCATS).
The inconclusive results got no clear call from the source; some entries with a clear call stand among them for comparison. Where the call is inconclusive, the potency comes from a doubtful curve fit. Activity calls are given as the source filed them. Calls come from the whole dose curve; as a rule, active = well fitted cell-killing curve with a large enough effect; inconclusive = small, poorly fitted or top-dose-only effect; inactive = flat fitted curve, though single readings scatter.

Assay: Cell Viability - LYMP1-002 - Assay at 40 hr (AID 994); note: nearly all actives have a fitted effect of over 60% in size;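 for viability change, negative = cytotoxic: 0% = DMSO only and full inhibition = 92 µM tetraoctylammonium bromide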
Details: LYMP1-002 lymphoblastoid cell viability; series mostly up to 92.2 µM; viability change, negative = cytotoxic: at the top concentration
Text: NIH Chemical Genomics Center [NCGC]
NIH Molecular Libraries Screening Centers Network [MLSCN]
National Institutes of Environmental Health Sciences [NIEHS]
National Toxicology Program [NTP]
We have developed a 1536-well cell-based assay for quantitative high throughput screening (qHTS) against a number of cell lines to determine in vitro cytotoxicity of small molecules. This particular assay uses a human lymphoblastoid cell line (LYMP1-002) purchased from Coriell Institute for Medical Research.
NCGC Assay Protocol Summary:
The CellTiter-Glo luminescent cell viability assay (Promega) is a homogeneous method to measure the number of viable cells in culture. The end point readout of this assay is based on quantitation of intracellular ATP, an indicator of metabolic activity, using the luciferase reaction. Luciferase catalyzes the oxidation of beetle Luciferin to oxyluciferin and light in the presence of ATP. The luminescent signal is proportional to amount of ATP present.
Using the CellTiter-Glo luminescent cell viability assay, the amount of cellular ATP was measured in the lymphoblastoid cell line with complete culture medium following compound treatment for 40 hours. The assay was performed in opaque white Kalypsys 1536-well plates. In the screen, tetraoctylammonium bromide was used as positive control. Library compounds were measured for their ability to cause acute toxicity in the cell line, as reflected by a decrease in intracellular ATP levels, in a concentration-dependent manner. […] AC50 values were determined from concentration-response data modeled with the standard Hill equation.
qHTS protocol for CellTiter Glo lymphoblastoid cellular assay
[Step] [Parameter] [Value] [Description]
1. Reagent; 5 uL; 2500 lymphoblastoid cells/well
2. Time; 5 hr; 37 C incubation
4. Controls; 23 nL; Tetraoctylammonium bromide 6.4pM to 92 uM
5. Time; 40 hr; 37 C incubation
6. Reagent; 5 uL; CellTiter Glo reagent
7. Time; 30 min; Room Temperature
8. Detection; Luminescence; Viewlux plate reader
Keywords: cell viability, cytotoxicity, lymphoblastoid cell line, luminescence, NTPHTS, NTPHTS_NCGC, NIEHS, DSSTox, MLSMR, MLSCN, NIH Roadmap, qHTS, NCGC
Potency is the fitted concentration of half-maximal effect.

Q: With `Nn1cnnc1` as the compound, how does the “viability change, negative = cytotoxic” value read?
A: inactive: -7.23%

Q: With `[O-][Cl+]O` as the compound, how does the “viability change, negative = cytotoxic” value read?
A: inactive: -15.8%

Q: With `CCCCNC(=O)n1c(NC(=O)OC)nc2ccccc21` as the compound, how does the Potency read?
A: inconclusive: 15.8 µM [cytotoxic, full curve]

Q: For `O=Nc1ccc(Nc2ccccc2)cc1`, which Potency is on record?
A: active: 12.6 µM

Q: With `Cc1cnc[nH]1` as the compound, how does the Potency read?
A: inconclusive: 79.4 µM [cytotoxic, single point]

Q: With `C=CC(=O)OCC(C)C` as the compound, how does the “viability change, negative = cytotoxic” value read?
A: inactive: -3.56%

Q: With `COC(=O)Nc1nc2ccccc2[nH]1` as the compound, how does the Potency read?
A: inconclusive: 31.6 µM [cytotoxic, partial curve]

Q: With `CCOP(=O)(OCC)OCC` as the compound, how does the “viability change, negative = cytotoxic” value read?
A: inactive: 3.36%

Q: With `Cc1cccc(N)c1C` as the compound, how does the Potency read?
A: inconclusive: 79.4 µM [cytotoxic, partial curve]

Q: Which “viability change, negative = cytotoxic” value does the source give for `Cc1cc(-c2cc(C)c(N)c(C)c2)cc(C)c1N` here?
A: inactive: -2.11%

Q: Which Potency does the source give for `Cc1ccc(N)c(N)c1` here?
A: inconclusive: 39.8 µM [cytotoxic, partial curve]

Q: With `C[N+](=O)[O-]` as the compound, how does the “viability change, negative = cytotoxic” value read?
A: inactive: 6.04%

Q: Which “viability change, negative = cytotoxic” value does the source give for `C=C(C)C#N` here?
A: inactive: 3.42%

Q: For `O=[N+]([O-])c1ccc(Cl)c(Cl)c1`, which “viability change, negative = cytotoxic” value is on record?
A: inactive: -2.16%

Q: For `O=[N+]([O-])c1ccccc1O`, which “viability change, negative = cytotoxic” value is on record?
A: inactive: -2.09%

Q: For `CC(C)Br`, which “viability change, negative = cytotoxic” value is on record?
A: inactive: -6.12%
